From the supplement of paper PMC10849652
The other results are listed elsewhere or left out.

Chains of the proteins cited; added tags and fusions are not shown. Lines headed by an entry give the natural chain unless they say otherwise; changes in a name come on top.
UniProt O75150, whole entry, looked up: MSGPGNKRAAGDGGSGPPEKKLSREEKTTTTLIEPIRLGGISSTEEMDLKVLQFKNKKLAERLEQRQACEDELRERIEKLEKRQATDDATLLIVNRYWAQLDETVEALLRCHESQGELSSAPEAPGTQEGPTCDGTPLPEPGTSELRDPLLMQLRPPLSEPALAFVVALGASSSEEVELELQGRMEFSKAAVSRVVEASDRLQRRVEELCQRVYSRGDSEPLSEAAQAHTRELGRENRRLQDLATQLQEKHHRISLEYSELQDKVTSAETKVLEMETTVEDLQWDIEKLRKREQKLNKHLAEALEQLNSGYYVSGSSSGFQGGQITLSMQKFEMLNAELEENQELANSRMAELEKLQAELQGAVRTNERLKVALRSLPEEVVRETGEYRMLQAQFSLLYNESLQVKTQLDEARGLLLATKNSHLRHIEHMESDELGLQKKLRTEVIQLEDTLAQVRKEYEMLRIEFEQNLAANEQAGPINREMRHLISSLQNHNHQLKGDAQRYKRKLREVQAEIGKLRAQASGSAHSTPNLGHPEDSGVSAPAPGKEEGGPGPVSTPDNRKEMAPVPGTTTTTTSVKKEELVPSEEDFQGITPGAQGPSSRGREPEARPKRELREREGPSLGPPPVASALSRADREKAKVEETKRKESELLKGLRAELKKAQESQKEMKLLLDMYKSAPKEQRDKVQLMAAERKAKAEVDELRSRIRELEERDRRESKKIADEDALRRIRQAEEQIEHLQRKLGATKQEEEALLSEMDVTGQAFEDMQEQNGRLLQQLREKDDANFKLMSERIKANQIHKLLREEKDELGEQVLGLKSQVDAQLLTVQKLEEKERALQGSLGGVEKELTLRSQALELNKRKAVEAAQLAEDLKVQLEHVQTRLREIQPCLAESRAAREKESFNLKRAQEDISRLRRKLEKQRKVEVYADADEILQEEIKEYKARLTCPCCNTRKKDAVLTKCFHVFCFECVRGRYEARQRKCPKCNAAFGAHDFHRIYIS
UniProt Q05823: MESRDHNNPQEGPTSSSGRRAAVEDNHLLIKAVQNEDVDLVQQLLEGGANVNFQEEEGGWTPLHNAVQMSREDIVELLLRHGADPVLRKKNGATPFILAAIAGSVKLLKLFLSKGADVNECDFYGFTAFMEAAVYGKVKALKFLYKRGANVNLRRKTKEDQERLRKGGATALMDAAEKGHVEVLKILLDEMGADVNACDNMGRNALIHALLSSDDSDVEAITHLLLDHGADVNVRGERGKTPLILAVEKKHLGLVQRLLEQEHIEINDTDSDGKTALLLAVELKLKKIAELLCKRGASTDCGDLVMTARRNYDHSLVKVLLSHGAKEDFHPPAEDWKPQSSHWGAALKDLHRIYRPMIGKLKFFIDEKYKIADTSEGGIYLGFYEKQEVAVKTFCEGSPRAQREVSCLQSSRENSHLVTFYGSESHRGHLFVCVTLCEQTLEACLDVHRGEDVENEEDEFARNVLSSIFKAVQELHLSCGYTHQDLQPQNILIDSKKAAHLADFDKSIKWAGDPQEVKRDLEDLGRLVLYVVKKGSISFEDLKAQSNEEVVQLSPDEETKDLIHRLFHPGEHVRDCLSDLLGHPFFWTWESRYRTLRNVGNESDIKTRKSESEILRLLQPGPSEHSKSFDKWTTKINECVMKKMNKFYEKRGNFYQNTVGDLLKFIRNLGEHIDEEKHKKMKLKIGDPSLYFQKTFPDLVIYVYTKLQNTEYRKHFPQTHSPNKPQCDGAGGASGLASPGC
UniProt O15541: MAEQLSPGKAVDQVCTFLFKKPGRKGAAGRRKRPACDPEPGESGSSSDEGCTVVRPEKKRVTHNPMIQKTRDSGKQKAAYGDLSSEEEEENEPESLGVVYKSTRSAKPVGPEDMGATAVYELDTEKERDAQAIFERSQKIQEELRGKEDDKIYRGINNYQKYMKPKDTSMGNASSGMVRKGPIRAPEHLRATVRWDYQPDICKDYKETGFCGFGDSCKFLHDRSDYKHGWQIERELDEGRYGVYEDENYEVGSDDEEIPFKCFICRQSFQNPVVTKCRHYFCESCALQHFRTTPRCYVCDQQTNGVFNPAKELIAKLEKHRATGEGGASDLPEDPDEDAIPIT
UniProt Q9BQY4: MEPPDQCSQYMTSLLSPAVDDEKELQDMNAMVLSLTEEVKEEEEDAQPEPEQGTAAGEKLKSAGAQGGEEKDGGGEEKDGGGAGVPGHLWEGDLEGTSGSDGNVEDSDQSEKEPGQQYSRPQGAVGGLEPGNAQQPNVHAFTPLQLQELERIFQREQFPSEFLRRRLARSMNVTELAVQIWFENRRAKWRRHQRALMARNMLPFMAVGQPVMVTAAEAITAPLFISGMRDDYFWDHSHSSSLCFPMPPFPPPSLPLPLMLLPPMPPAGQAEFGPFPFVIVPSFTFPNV
UniProt O75695: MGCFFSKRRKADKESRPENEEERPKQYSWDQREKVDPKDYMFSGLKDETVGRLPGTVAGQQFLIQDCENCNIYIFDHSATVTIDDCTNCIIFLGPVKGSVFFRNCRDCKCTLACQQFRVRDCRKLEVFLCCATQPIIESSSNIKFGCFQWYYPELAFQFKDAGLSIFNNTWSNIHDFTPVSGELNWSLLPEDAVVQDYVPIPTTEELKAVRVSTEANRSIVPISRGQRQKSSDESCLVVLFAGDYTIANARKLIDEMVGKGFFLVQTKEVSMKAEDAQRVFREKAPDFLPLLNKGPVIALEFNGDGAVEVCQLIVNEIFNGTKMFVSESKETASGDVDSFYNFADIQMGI
UniProt P08134, whole entry, looked up: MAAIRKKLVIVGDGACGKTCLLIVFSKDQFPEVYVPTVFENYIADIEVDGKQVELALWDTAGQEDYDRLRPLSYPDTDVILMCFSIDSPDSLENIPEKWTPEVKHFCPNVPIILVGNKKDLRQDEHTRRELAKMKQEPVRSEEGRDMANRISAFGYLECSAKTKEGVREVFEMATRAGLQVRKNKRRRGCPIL
UniProt O75792: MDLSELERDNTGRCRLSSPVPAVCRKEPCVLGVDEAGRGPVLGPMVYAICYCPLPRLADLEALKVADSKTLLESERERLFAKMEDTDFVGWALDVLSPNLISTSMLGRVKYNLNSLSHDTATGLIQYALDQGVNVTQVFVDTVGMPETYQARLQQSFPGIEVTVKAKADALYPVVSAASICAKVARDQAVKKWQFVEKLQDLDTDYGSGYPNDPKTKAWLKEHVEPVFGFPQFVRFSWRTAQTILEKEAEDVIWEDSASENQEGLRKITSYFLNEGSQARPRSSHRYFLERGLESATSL
UniProt Q5VTB9: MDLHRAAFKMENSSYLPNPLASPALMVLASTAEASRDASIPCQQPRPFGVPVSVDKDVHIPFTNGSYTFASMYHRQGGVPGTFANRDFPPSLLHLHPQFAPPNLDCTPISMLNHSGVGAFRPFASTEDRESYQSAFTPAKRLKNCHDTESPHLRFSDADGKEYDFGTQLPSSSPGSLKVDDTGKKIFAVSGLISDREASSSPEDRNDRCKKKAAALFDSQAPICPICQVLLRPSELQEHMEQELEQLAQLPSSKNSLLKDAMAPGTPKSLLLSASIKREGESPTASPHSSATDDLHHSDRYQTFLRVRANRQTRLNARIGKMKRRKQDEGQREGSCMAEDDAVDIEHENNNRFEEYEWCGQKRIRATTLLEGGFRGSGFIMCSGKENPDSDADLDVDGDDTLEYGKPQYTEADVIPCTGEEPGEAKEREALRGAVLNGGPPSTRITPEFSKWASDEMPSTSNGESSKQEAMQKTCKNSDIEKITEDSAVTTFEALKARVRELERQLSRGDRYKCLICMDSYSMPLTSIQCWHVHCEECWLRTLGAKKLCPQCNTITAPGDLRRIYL
UniProt Q9Y508: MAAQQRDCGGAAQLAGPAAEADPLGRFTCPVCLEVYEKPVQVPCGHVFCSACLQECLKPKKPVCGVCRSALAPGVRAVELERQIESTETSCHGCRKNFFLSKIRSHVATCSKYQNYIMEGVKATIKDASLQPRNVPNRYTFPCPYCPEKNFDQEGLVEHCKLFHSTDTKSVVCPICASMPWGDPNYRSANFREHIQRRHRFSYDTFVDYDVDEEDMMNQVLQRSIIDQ
UniProt Q96AT9: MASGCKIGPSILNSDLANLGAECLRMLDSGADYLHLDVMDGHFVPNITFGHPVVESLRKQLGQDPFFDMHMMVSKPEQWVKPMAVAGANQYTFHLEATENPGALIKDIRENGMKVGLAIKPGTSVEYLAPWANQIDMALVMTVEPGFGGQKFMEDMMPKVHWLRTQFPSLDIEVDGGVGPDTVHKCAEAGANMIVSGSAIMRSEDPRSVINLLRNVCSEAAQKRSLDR
UniProt O43148, whole entry, looked up: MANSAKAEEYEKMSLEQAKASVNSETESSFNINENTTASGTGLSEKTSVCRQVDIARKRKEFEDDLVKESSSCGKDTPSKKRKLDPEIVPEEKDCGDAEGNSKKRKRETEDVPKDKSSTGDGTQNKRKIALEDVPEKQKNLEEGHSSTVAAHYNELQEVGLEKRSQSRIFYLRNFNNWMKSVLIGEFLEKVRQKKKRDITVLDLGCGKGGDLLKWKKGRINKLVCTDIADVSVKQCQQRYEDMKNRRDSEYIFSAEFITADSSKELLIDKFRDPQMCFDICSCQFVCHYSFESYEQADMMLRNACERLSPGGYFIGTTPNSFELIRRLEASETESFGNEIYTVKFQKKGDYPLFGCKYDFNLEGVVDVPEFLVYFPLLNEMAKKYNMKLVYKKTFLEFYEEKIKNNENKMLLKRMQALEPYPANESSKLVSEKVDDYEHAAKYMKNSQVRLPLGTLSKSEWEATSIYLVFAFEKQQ
UniProt Q5XPI4: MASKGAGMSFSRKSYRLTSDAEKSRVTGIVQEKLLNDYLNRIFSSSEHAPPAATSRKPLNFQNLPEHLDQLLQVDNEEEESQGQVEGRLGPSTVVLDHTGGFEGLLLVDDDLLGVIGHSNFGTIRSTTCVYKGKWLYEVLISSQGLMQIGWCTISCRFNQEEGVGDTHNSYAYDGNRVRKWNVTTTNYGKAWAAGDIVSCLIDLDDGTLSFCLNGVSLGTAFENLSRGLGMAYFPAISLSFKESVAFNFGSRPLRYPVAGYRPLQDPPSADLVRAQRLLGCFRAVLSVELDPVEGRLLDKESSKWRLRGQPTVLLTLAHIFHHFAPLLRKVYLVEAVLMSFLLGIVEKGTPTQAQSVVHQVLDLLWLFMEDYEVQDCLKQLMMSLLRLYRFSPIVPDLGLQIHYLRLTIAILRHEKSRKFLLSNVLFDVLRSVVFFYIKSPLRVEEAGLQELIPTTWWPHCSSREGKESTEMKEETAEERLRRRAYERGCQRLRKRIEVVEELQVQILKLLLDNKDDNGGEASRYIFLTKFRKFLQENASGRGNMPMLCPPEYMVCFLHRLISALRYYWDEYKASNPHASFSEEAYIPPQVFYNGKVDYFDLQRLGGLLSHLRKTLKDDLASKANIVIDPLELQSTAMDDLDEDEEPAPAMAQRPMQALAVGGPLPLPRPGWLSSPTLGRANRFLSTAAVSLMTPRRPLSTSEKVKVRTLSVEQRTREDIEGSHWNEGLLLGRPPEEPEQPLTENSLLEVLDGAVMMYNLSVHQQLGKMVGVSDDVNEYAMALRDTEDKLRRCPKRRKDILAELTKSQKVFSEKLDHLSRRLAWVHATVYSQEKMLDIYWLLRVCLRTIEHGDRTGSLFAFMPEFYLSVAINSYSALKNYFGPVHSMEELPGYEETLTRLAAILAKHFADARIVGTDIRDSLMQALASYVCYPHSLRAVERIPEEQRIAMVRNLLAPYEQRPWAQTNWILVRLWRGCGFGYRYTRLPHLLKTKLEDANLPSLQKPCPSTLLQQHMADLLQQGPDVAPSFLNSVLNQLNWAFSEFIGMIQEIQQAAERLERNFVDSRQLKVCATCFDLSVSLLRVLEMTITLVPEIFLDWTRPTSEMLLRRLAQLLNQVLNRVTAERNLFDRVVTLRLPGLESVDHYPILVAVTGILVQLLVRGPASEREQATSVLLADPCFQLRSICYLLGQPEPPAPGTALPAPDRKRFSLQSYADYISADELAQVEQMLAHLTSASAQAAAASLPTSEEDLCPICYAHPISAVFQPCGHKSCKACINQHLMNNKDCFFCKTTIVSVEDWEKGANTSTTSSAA
UniProt Q8NC42: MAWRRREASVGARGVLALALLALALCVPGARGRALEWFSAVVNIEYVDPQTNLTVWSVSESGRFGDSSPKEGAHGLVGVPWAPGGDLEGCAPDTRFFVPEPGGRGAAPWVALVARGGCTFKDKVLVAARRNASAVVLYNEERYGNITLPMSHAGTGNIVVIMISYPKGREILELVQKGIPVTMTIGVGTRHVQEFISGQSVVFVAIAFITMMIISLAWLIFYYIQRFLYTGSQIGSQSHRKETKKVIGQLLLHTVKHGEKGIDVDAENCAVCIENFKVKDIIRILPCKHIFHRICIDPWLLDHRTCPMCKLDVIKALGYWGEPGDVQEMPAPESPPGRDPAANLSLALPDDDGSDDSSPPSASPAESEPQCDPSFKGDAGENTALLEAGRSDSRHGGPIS

compound: CC1=C2C(=CC=C1)N=C(N(C2=O)C3=CC=CC=C3C)CN4C=NC5=C(N=CN=C54)N; assay: log2 fold change, soluble protein after heating vs DMSO (PISA); higher = thermal stabilisation; K562 lysate, 10 uM; active = over 0.2 and 3.5 SD of the protein, either way, in both replicates (recomputed)
Outline: (§1)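 Quantification was by TMTpro 16plex LC-MS/MS with equalised channel sums, applied to the supernatant after 21,000xg for 90 min. Samples were crude K562 extract at 1 mg/mL protein in PBS pH 7.4 with 1 mM MgCl2, treated with 10 μM compound for 30 min, heated for 3 min across 48°C-58°C, pooled and brought to 0.5% NP-40 at 4°C. Values are log-two fold changes in thermal stability relative to solvent controls, from duplicates.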

Target	log2 fold change
RPL15 (UniProt P61313)	inactive: -0.001
RIPK2 (UniProt O43353)	inactive: 0.045
RNF138 (UniProt Q8WVD3)	inactive: 0.082
RNF141 (UniProt Q8WVD5)	inactive: -0.223
RMND5A (UniProt Q9H871)	inactive: -0.028
RNF40 (UniProt O75150)	inactive: 0.007
RNASEL (UniProt Q05823)	inactive: 0.068
RNF113A (UniProt O15541)	inactive: -0.018
RHOXF2 (UniProt Q9BQY4)	inactive: 0.056
RP2 (UniProt O75695)	inactive: -0.093
RPL11 (UniProt P62913)	inactive: 0.001
RIC8B isoform 1 (UniProt Q9NVN3)	inactive: -0.054
RHOC (UniProt P08134)	inactive: -0.012
RNASEH2A (UniProt O75792)	inactive: 0.021
RNF220 (UniProt Q5VTB9)	inactive: -0.036
RPL24 (UniProt P83731)	inactive: 0.016
RPL23A (UniProt P62750)	inactive: -0.035

Target	log2 fold change
RNF25 (UniProt Q96BH1)	inactive: 0.036
RIF1 (UniProt Q5UIP0)	inactive: 0.012
RNGTT (UniProt O60942)	inactive: 0.042
RPL28 (UniProt P46779)	inactive: 0.001
RNF114 (UniProt Q9Y508)	inactive: -0.007
RPE (UniProt Q96AT9)	inactive: 0.07
RHOT1 isoform 3 (UniProt Q8IXI2)	inactive: -0.029
RINT1 (UniProt Q6NUQ1)	inactive: 0.019
ROCK1 (UniProt Q13464)	inactive: 0.023
RNMT isoform 2 (UniProt O43148)	inactive: -0.001
ROR2 (UniProt Q01974)	inactive: 0.005
RPL22 (UniProt P35268)	inactive: 0.007
RNF123 (UniProt Q5XPI4)	inactive: 0.019
RNPEP (UniProt Q9H4A4)	inactive: -0.002
RNF149 (UniProt Q8NC42)	inactive: -0.138
RPAP2 (UniProt Q8IXW5)	inactive: 0.048

compound: Cc1sc2c(c1C)C(c1ccc(Cl)cc1)=N[C@@H](CC(=O)OC(C)(C)C)c1nnc(C)n1-2; assay: as above
Outline: as §1

Target	log2 fold change
RPL15 (UniProt P61313)	inactive: -0.007
RIPK2 (UniProt O43353)	inactive: 0.001
RNF138 (UniProt Q8WVD3)	inactive: 0.041
RNF141 (UniProt Q8WVD5)	inactive: 0.045
RMND5A (UniProt Q9H871)	inactive: 0.022
RNF40 (UniProt O75150)	inactive: -0.003
RNASEL (UniProt Q05823)	inactive: -0.004
RNF113A (UniProt O15541)	inactive: -0.065
RHOXF2 (UniProt Q9BQY4)	inactive: 0.009
RP2 (UniProt O75695)	inactive: -0.02
RPL11 (UniProt P62913)	inactive: -0.055
RIC8B isoform 1 (UniProt Q9NVN3)	inactive: -0.146
RHOC (UniProt P08134)	inactive: 0.08
RNASEH2A (UniProt O75792)	inactive: 0.104
RNF220 (UniProt Q5VTB9)	inactive: -0.001
RPL24 (UniProt P83731)	inactive: 0
RPL23A (UniProt P62750)	inactive: 0.032

Target	log2 fold change
RNF25 (UniProt Q96BH1)	inactive: 0.005
RIF1 (UniProt Q5UIP0)	inactive: -0.005
RNGTT (UniProt O60942)	inactive: -0.027
RPL28 (UniProt P46779)	inactive: -0.008
RNF114 (UniProt Q9Y508)	inactive: 0.012
RPE (UniProt Q96AT9)	inactive: 0.018
RHOT1 isoform 3 (UniProt Q8IXI2)	inactive: 0.029
RINT1 (UniProt Q6NUQ1)	inactive: -0.008
ROCK1 (UniProt Q13464)	inactive: -0.016
RNMT isoform 2 (UniProt O43148)	inactive: -0.032
ROR2 (UniProt Q01974)	inactive: 0.007
RPL22 (UniProt P35268)	inactive: -0.001
RNF123 (UniProt Q5XPI4)	inactive: 0.005
RNPEP (UniProt Q9H4A4)	inactive: 0.031
RNF149 (UniProt Q8NC42)	inactive: -0.081
RPAP2 (UniProt Q8IXW5)	inactive: -0.126

compound: c1ccc([C@@H]2C[C@H]2NC2CCNCC2)cc1; assay: as above
Outline: as §1

Target	log2 fold change
RPL15 (UniProt P61313)	inactive: 0.006
RIPK2 (UniProt O43353)	inactive: 0.023
RNF138 (UniProt Q8WVD3)	inactive: 0.048
RNF141 (UniProt Q8WVD5)	inactive: 0.003
RMND5A (UniProt Q9H871)	inactive: -0.026
RNF40 (UniProt O75150)	inactive: 0.041
RNASEL (UniProt Q05823)	inactive: 0.046
RNF113A (UniProt O15541)	inactive: -0.066
RHOXF2 (UniProt Q9BQY4)	inactive: -0.069
RP2 (UniProt O75695)	inactive: 0.079
RPL11 (UniProt P62913)	inactive: -0.007
RIC8B isoform 1 (UniProt Q9NVN3)	inactive: 0.026
RHOC (UniProt P08134)	inactive: -0.064
RNASEH2A (UniProt O75792)	inactive: 0.006
RNF220 (UniProt Q5VTB9)	inactive: 0.102
RPL24 (UniProt P83731)	inactive: -0.02
RPL23A (UniProt P62750)	inactive: 0.077

Target	log2 fold change
RNF25 (UniProt Q96BH1)	inactive: -0.021
RIF1 (UniProt Q5UIP0)	inactive: 0.003
RNGTT (UniProt O60942)	inactive: 0.009
RPL28 (UniProt P46779)	inactive: 0.041
RNF114 (UniProt Q9Y508)	inactive: -0.07
RPE (UniProt Q96AT9)	inactive: -0.289
RHOT1 isoform 3 (UniProt Q8IXI2)	inactive: -0.019
RINT1 (UniProt Q6NUQ1)	inactive: 0.026
ROCK1 (UniProt Q13464)	inactive: -0.008
RNMT isoform 2 (UniProt O43148)	inactive: -0.04
ROR2 (UniProt Q01974)	inactive: -0.008
RPL22 (UniProt P35268)	inactive: 0.02
RNF123 (UniProt Q5XPI4)	inactive: 0.047
RNPEP (UniProt Q9H4A4)	inactive: 0.003
RNF149 (UniProt Q8NC42)	inactive: 0
RPAP2 (UniProt Q8IXW5)	inactive: -0.07
